We go through two molecules from article PMC11781169.

Amino acid sequences for entries named in this document (tags omitted).
UniProt Q13049: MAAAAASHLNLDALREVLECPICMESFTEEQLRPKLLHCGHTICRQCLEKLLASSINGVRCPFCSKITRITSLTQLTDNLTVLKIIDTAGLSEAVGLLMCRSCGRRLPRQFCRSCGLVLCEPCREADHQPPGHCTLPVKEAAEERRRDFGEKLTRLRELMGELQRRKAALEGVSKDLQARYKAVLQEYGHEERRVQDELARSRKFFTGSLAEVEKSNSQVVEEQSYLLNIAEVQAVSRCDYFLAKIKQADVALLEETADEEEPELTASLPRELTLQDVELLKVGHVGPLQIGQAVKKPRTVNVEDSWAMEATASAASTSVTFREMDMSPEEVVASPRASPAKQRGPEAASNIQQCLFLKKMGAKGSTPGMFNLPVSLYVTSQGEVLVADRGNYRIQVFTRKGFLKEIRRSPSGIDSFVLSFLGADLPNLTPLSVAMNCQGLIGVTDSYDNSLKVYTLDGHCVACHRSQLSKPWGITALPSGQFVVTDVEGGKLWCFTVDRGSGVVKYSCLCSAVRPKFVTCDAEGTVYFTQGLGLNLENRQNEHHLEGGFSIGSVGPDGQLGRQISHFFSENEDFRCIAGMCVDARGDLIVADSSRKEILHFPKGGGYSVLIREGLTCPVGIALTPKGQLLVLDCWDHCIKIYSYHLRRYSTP
UniProt Q9QUJ7: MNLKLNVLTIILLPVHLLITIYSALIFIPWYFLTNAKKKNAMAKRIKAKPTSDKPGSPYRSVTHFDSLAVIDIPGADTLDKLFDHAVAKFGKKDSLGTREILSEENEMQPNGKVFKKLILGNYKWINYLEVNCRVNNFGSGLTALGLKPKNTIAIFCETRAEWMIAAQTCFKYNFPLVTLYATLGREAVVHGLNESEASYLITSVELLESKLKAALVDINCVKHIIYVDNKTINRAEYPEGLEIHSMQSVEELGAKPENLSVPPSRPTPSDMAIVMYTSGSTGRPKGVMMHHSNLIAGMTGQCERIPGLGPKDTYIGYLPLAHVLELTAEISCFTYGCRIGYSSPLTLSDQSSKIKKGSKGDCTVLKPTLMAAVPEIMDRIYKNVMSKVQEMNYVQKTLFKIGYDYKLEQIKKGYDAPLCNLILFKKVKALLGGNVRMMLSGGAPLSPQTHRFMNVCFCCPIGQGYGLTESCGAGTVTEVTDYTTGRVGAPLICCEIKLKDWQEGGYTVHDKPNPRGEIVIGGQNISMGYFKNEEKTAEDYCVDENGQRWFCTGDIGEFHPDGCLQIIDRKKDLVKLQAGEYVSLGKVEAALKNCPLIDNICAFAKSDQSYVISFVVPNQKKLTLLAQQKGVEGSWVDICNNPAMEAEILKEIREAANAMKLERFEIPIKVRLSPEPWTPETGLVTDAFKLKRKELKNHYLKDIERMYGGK

The assay has as its target Flag-TRIM32 (tripartite motif containing 32), expressed in primary neurons (human) (UniProt Q13049). Description: co-IP; primary neurons transfected with Flag-TRIM32; lysate immunoprecipitated with anti-Flag on magnetic beads; immunoblot for endogenous ACSL4, GPX4, xCT and NRF2; in the presence of Baf A1. For orientation: In western blotting, separated proteins are transferred to a membrane and probed.

No constants are given. Whether binding was seen depends on the method and setting. Binding seen in cells or lysates may run through a third protein.

In the case of “endogenous ACSL4 of primary neurons (from UniProt Q9QUJ7 1-711)”, the binding entry was “no binding”.

B1: endogenous NRF2 of primary neurons (protein, UniProt Q60795 1-597)
chain: MMDLELPPPGLQSQQDMDLIDILWRQDIDLGVSREVFDFSQRQKDYELEKQKKLEKERQEQLQKEQEKAFFAQFQLDEETGEFLPIQPAQHIQTDTSGSASYSQVAHIPKQDALYFEDCMQLLAETFPFVDDHESLALDIPSHAESSVFTAPHQAQSLNSSLEAAMTDLSSIEQDMEQVWQELFSIPELQCLNTENKQLADTTAVPSPEATLTEMDSNYHFYSSISSLEKEVGNCGPHFLHGFEDSFSSILSTDDASQLTSLDSNPTLNTDFGDEFYSAFIAEPSDGGSMPSSAAISQSLSELLDGTIEGCDLSLCKAFNPKHAEGTMEFNDSDSGISLNTSPSRASPEHSVESSIYGDPPPGFSDSEMEELDSAPGSVKQNGPKAQPAHSPGDTVQPLSPAQGHSAPMRESQCENTTKKEVPVSPGHQKAPFTKDKHSSRLEAHLTRDELRAKALHIPFPVEKIINLPVDDFNEMMSKEQFNEAQLALIRDIRRRGKNKVAAQNCRKRKLENIVELEQDLGHLKDEREKLLREKGENDRNLHLLKRRLSTLYLEVFSMLRDEDGKPYSPSEYSLQQTRDGNVFLVPKSKKPDTKKN
Regarding B1, the binding entry is reported as “no binding”.
